In the supplement of paper PMC3334620:
Whole data set: some 33,000 sequences, median “E-score (-0.5 to 0.5)” near -0.0014, cut for the highest 2% near 0.25. This is one part of the list.

Molecular target: T1, Cad1 (UniProt P24813)
T1 sequence: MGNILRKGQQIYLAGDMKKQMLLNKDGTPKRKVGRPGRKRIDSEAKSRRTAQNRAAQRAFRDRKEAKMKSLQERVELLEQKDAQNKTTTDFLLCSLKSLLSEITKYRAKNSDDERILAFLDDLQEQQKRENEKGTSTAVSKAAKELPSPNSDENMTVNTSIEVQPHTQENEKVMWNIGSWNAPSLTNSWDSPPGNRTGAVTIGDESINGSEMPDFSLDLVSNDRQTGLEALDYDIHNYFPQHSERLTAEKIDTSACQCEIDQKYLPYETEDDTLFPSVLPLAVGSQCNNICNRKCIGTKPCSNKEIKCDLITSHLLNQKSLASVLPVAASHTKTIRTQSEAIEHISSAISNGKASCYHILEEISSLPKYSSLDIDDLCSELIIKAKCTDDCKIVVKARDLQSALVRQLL
Experiment: PBM E-score (8-mer binding enrichment) (E-score (-0.5 to 0.5)); higher = stronger / more preferred TF binding
Details: protein concentration: 100 nM; construct: GST-full length
Method: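 Universal 'all 10-mer' protein binding microarrays (Agilent AMADID 015681) probed with GST-tagged S. cerevisiae TFs (full-length or DBD) made by in vitro transcription/translation (PURExpress), about 100-200 nM. Bound TF was detected with fluorescent anti-GST. Each ungapped 8-mer (which stands for itself and its reverse complement) is scored by the PBM enrichment score (E-score), a modified Wilcoxon-Mann-Whitney statistic from -0.5 to +0.5, computed with the Universal PBM Analysis Suite. Scale: above 0.35 generally sequence-specific binding.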

Compared with ATGCAACA, CACAGTCG is lower in “PBM E-score” value: -0.00464 for the first, -0.0501 for the second.

First: AAAGCTGG
Second: GTGTCAAC
The “PBM E-score” value of the first is lower: -0.145 for the first, -0.0779 for the second.

Going from AGAATTTG to ACATTGTG, the “PBM E-score” value falls from 0.189 to -0.0593.

First: ACATGGCA
Second: AGAGGGGG
The “PBM E-score” value of the first is higher: -0.0744 for the first, -0.476 for the second.

First: ACGCGAAG
Second: AAACACGG
The “PBM E-score” value of the first is higher: 0.0966 for the first, 0.0263 for the second.

Compared with ACGTGGCC, CGTTTCGA is higher in “PBM E-score” value: -0.079 for the first, -0.0385 for the second.

Going from AAACTACC to ATTAATTA, the “PBM E-score” value rises from 0.0961 to 0.263.

First: AGGAGTGA
Second: CAACCCGA
The “PBM E-score” value of the first is lower: -0.13 for the first, 0.149 for the second.

Going from TCTTCCCA to ACCGTCAT, the “PBM E-score” value rises from -0.315 to -0.0459.

Compared with ACCACTAG, CCTCGACG is higher in “PBM E-score” value: -0.182 for the first, -0.105 for the second.

Going from CGGCCCAG to CGCTAGCG, the “PBM E-score” value falls from -0.171 to -0.184.

Going from CAGGGGTA to AACCTTGT, the “PBM E-score” value falls from -0.139 to -0.313.

Compared with CCCGTCCG, CCAATCCA is higher in “PBM E-score” value: -0.299 for the first, -0.149 for the second.

First: ACTCCAGC
Second: AAGATGCT
The “PBM E-score” value of the first is lower: -0.151 for the first, 0.039 for the second.

First: GCGACAGC
Second: AAGAATGA
The “PBM E-score” value of the first is lower: -0.043 for the first, -0.0235 for the second.

Going from GCGGCGTA to AACCCCAC, the “PBM E-score” value falls from -0.0691 to -0.178.

Going from GACTCCCC to CAAGCACG, the “PBM E-score” value rises from -0.26 to 0.152.

Compared with AACCCCAT, GAAATGGC is lower in “PBM E-score” value: -0.107 for the first, -0.127 for the second.

Going from AAAAGCGC to CAGTTACC, the “PBM E-score” value falls from 0.0216 to -0.00891.

First: GATAAATC
Second: ACGGGACT
The “PBM E-score” value of the first is higher: 0.133 for the first, -0.134 for the second.

Going from ACCTAAGT to ATTGTCAA, the “PBM E-score” value rises from 0.0196 to 0.084.

Compared with AACTAACC, CGAGAGCC is lower in “PBM E-score” value: 0.182 for the first, -0.304 for the second.

Compared with AGCCTAGA, CAGCGGTA is higher in “PBM E-score” value: -0.16 for the first, 0.107 for the second.

First: CATAGAAG
Second: TCCCTCCA
The “PBM E-score” value of the first is higher: -0.0635 for the first, -0.173 for the second.

Going from ACGCCGCA to AATTGACA, the “PBM E-score” value rises from -0.0273 to 0.0327.

Going from CGTAGGGC to AATACTGC, the “PBM E-score” value rises from -0.225 to 0.12.

First: CAGCCGGA
Second: AAGTATAA
The “PBM E-score” value of the first is higher: 0.21 for the first, 0.0643 for the second.

Going from TCGAATCA to ACGGCACC, the “PBM E-score” value falls from 0.194 to -0.249.

Going from GCCCACAA to ACTCCTTA, the “PBM E-score” value falls from -0.153 to -0.267.

Going from CATTCCTA to AGCTCGAA, the “PBM E-score” value rises from -0.0168 to 0.151.

Going from TCGAGGCA to CAATGGCG, the “PBM E-score” value falls from 0.169 to 0.0748.

Going from GTGCCGCA to TCATTCCA, the “PBM E-score” value falls from 0.232 to -0.125.

Going from AAGTCTTC to AAATACGC, the “PBM E-score” value rises from -0.025 to 0.1.

Going from ATTCAGCG to AGACCCTA, the “PBM E-score” value falls from 0.0791 to -0.231.

Going from CAAGCCAC to ATACGAAA, the “PBM E-score” value rises from -0.244 to 0.216.

First: CCGCCCGA
Second: AAATCCGC
The “PBM E-score” value of the first is higher: 0.0119 for the first, -0.0557 for the second.

Going from CGGCACAA to AGATGTTC, the “PBM E-score” value rises from -0.103 to -0.0743.

Compared with ACAATTCG, GACCCACA is higher in “PBM E-score” value: 0.0813 for the first, 0.115 for the second.

Going from ACTAATAC to CCATGTAC, the “PBM E-score” value falls from 0.301 to -0.063.

Going from CGGCCTTC to GGTTTGTA, the “PBM E-score” value falls from 0.112 to 0.0742.

Going from AAATCGAG to ACCAGGGG, the “PBM E-score” value falls from 0.086 to -0.409.

First: GCCGTAAC
Second: CTGTTAAA
The “PBM E-score” value of the first is higher: 0.0841 for the first, 0.034 for the second.

First: CGCTGCAC
Second: GTCTCATA
The “PBM E-score” value of the first is higher: 0.0234 for the first, 0.00534 for the second.

Compared with TGGAACAA, CTTCGCAC is lower in “PBM E-score” value: 0.144 for the first, 0.0282 for the second.

Going from AGTTACGG to AATGCGCA, the “PBM E-score” value rises from -0.229 to 0.342.

Compared with ATGTATTG, AATTCCTG is lower in “PBM E-score” value: 0.095 for the first, -0.128 for the second.

Compared with GTGCGTAA, ACAAGAGC is lower in “PBM E-score” value: 0.116 for the first, -0.107 for the second.

Compared with CAGACAGC, TCACCACA is higher in “PBM E-score” value: -0.111 for the first, 0.144 for the second.

Compared with ATTACAAA, CAGGTATC is lower in “PBM E-score” value: 0.425 for the first, -0.0707 for the second.

Going from AACAATAC to CATTTTTC, the “PBM E-score” value falls from 0.135 to 0.124.

First: CGATCTTA
Second: ACGGTCCT
The “PBM E-score” value of the first is higher: 0.0142 for the first, -0.272 for the second.

Compared with CGAAGAGC, TTACGGAA is higher in “PBM E-score” value: -0.0445 for the first, 0.072 for the second.

First: TAGTCAAA
Second: CATTGAGC
The “PBM E-score” value of the first is lower: -0.074 for the first, -0.0704 for the second.

First: CTTAAGAC
Second: CCGCGTAA
The “PBM E-score” value of the first is lower: -0.0415 for the first, 0.0243 for the second.

First: ATGCGCTA
Second: CACTAAGC
The “PBM E-score” value of the first is higher: 0.101 for the first, 0.0972 for the second.

First: AGCTTGAT
Second: ATAGCAAG
The “PBM E-score” value of the first is lower: 0.0208 for the first, 0.0832 for the second.

Going from GCGTCAAC to ATGATGGG, the “PBM E-score” value falls from -0.0122 to -0.0815.

First: AGTGCCGG
Second: AACCGTGT
The “PBM E-score” value of the first is lower: -0.0719 for the first, -0.0504 for the second.

First: ACGAGACG
Second: AAACCCAT
The “PBM E-score” value of the first is lower: -0.0928 for the first, 0.261 for the second.

Going from GTTTGCCA to CGGGGACA, the “PBM E-score” value rises from 0.00247 to 0.00954.

Compared with GTTAGTCA, CACGCAAG is lower in “PBM E-score” value: 0.266 for the first, 0.161 for the second.

Going from ACTGCACC to ATACTATA, the “PBM E-score” value falls from 0.0283 to -0.00949.

Compared with AAAATCCG, GCGTCTGA is lower in “PBM E-score” value: 0.0887 for the first, 0.0329 for the second.

Compared with AAAATCGA, CTGAGGCA is lower in “PBM E-score” value: 0.0728 for the first, -0.153 for the second.

Compared with AACGATAT, CGTAAAAG is lower in “PBM E-score” value: 0.271 for the first, 0.0161 for the second.

First: CGATGCGC
Second: CAACTCAA
The “PBM E-score” value of the first is lower: 0.102 for the first, 0.218 for the second.

Compared with GACCTGAA, TCAGCTAA is higher in “PBM E-score” value: -0.00931 for the first, 0.0322 for the second.

Compared with CTAATCTC, CACGAGAG is lower in “PBM E-score” value: 0.155 for the first, -0.253 for the second.

Going from AATGGGAT to GATACATA, the “PBM E-score” value rises from -0.161 to 0.181.

Compared with CGCATGTC, CCTTCCCC is lower in “PBM E-score” value: 0.0303 for the first, -0.168 for the second.

Going from CGTAACCA to CGGAACCG, the “PBM E-score” value rises from 0.0582 to 0.0852.

Going from AAACGTTA to CCAAGGGC, the “PBM E-score” value falls from 0.125 to -0.25.

Compared with ACACCAGA, AGTCCTGA is lower in “PBM E-score” value: 0.0117 for the first, -0.0327 for the second.

Compared with GCTCTATA, CGATCTCC is higher in “PBM E-score” value: -0.205 for the first, -0.0343 for the second.

Going from TTTAGAAA to CGGTTTAC, the “PBM E-score” value falls from -0.0357 to -0.0741.

Compared with CTGACTGA, AATGGACT is higher in “PBM E-score” value: 0.0583 for the first, 0.0697 for the second.

Compared with AATTATAT, AAAGTGGG is lower in “PBM E-score” value: 0.29 for the first, 0.0573 for the second.

Going from CAGCTAGC to AGAACAAA, the “PBM E-score” value rises from 0.00595 to 0.247.

Compared with CGCGCGAG, AATAAACA is lower in “PBM E-score” value: 0.302 for the first, 0.247 for the second.

Going from AGGTGGGA to GGCATATA, the “PBM E-score” value rises from -0.26 to 0.196.

Going from ACCGCTGA to AATCGGTG, the “PBM E-score” value falls from 0.0668 to -0.0566.

Going from AATAGCAG to AGGACACC, the “PBM E-score” value rises from -0.159 to 0.00026.

Going from ATTCTATC to CTAGGGTA, the “PBM E-score” value falls from 0.165 to -0.178.

Compared with ACCTCGAC, GTTCCAAA is lower in “PBM E-score” value: 0.0528 for the first, 0.0114 for the second.

Compared with GATCATGC, CTTCAGCA is higher in “PBM E-score” value: -0.207 for the first, 0.0699 for the second.

Going from GTCTTGAA to AAGACTAG, the “PBM E-score” value falls from 0.0681 to -0.308.
